Screen size: about 330,000 compounds; about 7,700 (2.3%) were called active. The shares of active, inactive and inconclusive entries below differ from those in the screen. Calls follow the shape of the dose curve; as a rule, active = well fitted inhibition curve with a large enough effect; inconclusive = small, poorly fitted or top-dose-only effect, or effect the other way; inactive = flat fitted curve, though single readings scatter. Where the call is inconclusive, the potency comes from a doubtful curve fit.
Assay: qHTS screen for small molecules that inhibit ELG1-dependent DNA repair in human embryonic kidney (HEK293T) cells expressing luciferase-tagged ELG1; also: nearly all actives have a fitted effect of over 55% in size
Settings: HEK293T ELG1-luciferase reporter, luminescence, 16 h, DNA damage induced by 5-fluorouridine; activity change, negative = inhibition: at 46.1 µM (top of the series)
Method in brief: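 Quantitative HTS, concentration-response format. 2,000 cells/well co-treated with 5-fluorouridine and compound, 16 hr in 5% CO2 at 37 °C; ONE-Glo luminescence read after 30 min.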
% is scaled to controls: 0 for no effect and ±100 for the full control effect; potency is read from the fitted curve at half-maximal effect.

Q: For `Cc1cc2n(n1)SC(Nc1ccc(F)c(Cl)c1)N2` (configuration not stated), which Potency is on record?
A: The Potency was inconclusive: 23.1 µM [activator, single point].

Q: For `Cc1ccc(C(=O)NNC(=O)C2CCN(Cc3ccc(Cl)c(Cl)c3)CC2)cc1`, which activity change, negative = inhibition is on record?
A: Its activity change, negative = inhibition is inconclusive: 43.4% [activator].

Q: Which Potency does the source give for `Cc1nn(-c2nc3ccccc3[nH]2)c(N)c1-c1ccccc1` here?
A: Its Potency is inconclusive: 2.59 µM [activator, partial curve].

Q: With `COCCNC(C(=O)Nc1ccc(C)cc1[N+](=O)[O-])c1ccccc1` (configuration not stated) as the compound, how does the Potency read?
A: Its Potency is inconclusive: 29.1 µM [activator, single point].

Q: For `O=C(NCc1ccco1)c1ccc(Cl)c(S(=O)(=O)N2CCc3ccccc32)c1`, which Potency is on record?
A: Its Potency is inconclusive: 29.1 µM [inhibitor, single point].

Q: With `CC(=O)c1ccc(N2CCN(S(=O)(=O)c3cn(C)cn3)CC2)cc1` as the compound, how does the Potency read?
A: Its Potency is inconclusive: 29.1 µM [activator, single point].

Q: Which “activity change, negative = inhibition” value does the source give for `COc1cccc(-c2cccc(NC(=O)C3CCN(Cc4nccs4)CC3)c2)c1` here?
A: The value was inactive: -7.61%.

Q: For `Fc1ccc(CCN2CCN=C2Nc2ccccc2)cc1`, which Potency is on record?
A: The Potency was inconclusive: 22.4 µM [activator, single point].

Q: Which Potency does the source give for `COc1ccc2nc(NC(=O)c3ccc(F)cc3)sc2c1` here?
A: Its Potency is inconclusive: 4.47 µM [activator, single point].

Q: Which Potency does the source give for `COc1cc(OC)c2c(=O)cc(-c3ccccc3)oc2c1` here?
A: Its Potency is inconclusive: 16.4 µM [activator, partial curve].

Q: With `COC(=O)c1cc(NC(=O)c2c(Cl)cnn2C)cc(C(=O)OC)c1` as the compound, how does the Potency read?
A: Its Potency is inconclusive: 25.9 µM [inhibitor, partial curve, poor fit].

Q: Which “activity change, negative = inhibition” value does the source give for `CC(Oc1ccc(Br)cc1Br)C(=O)Nc1cccnc1Cl` (configuration not stated) here?
A: The value was inactive: 15.8%.

Q: For `COc1ccc(NC(=O)/C(C#N)=C/c2c(C)nn(-c3ccc(F)cc3)c2Cl)cc1OC`, which “activity change, negative = inhibition” value is on record?
A: The value was inactive: -15.4%.

Q: For `COc1ccc(NC(=O)c2cc3ccccc3cc2O)cc1`, which Potency is on record?
A: Its Potency is inconclusive: 2.59 µM [activator, full curve].

Q: Which Potency does the source give for `N/C(=N\OC(=O)CCC1CCCC1)c1cccc([N+](=O)[O-])c1` here?
A: The Potency was inconclusive: 20.6 µM [activator, single point].

Q: With `CCOc1ccc(NC(=O)c2ccc(NC(=O)c3ccc(NC(N)=O)cc3)cc2)cc1` as the compound, how does the Potency read?
A: Its Potency is inconclusive: 20.6 µM [activator, single point].

Q: With `COc1cc(C(=O)O/N=C(\N)c2ccc([N+](=O)[O-])cc2)cc(OC)c1OC` as the compound, how does the Potency read?
A: The Potency was inconclusive: 23.1 µM [inhibitor, partial curve].

Q: With `COc1ccc(CNC(=O)c2c(N)n(CCCN3CCOCC3)c3nc4ccccc4nc23)cc1` as the compound, how does the Potency read?
A: The Potency was active: 20.6 µM.

Q: Which “activity change, negative = inhibition” value does the source give for `O=C(O)c1ccccc1N(Cc1ccccc1)C(=O)CO/N=C/c1ccccc1` here?
A: Its value is inactive: -0.996%.

Q: For `Clc1ccc(-c2ccc(SCc3ccccn3)nn2)cc1`, which Potency is on record?
A: Its Potency is inconclusive: 14.6 µM [activator, partial curve].

Q: Which Potency does the source give for `CC1CN(C(=S)SCC(=O)c2ccccc2)CC(C)O1` (configuration not stated) here?
A: Its Potency is inconclusive: 18.4 µM [activator, single point].

Q: For `CS(=O)(=O)c1ccccc1-c1nnc(NC(=O)C2=COCCO2)o1`, which “activity change, negative = inhibition” value is on record?
A: Its value is inactive: 7.57%.

Q: With `COC(=O)c1ccc(NC(=O)C2CCCO2)cc1` (configuration not stated) as the compound, how does the Potency read?
A: Its Potency is inconclusive: 6.51 µM [activator, partial curve, poor fit].

Q: With `N#Cc1c(-c2ccccc2)ccnc1Oc1ccccc1` as the compound, how does the Potency read?
A: The Potency was inconclusive: 20.6 µM [activator, partial curve, poor fit].

Q: Which Potency does the source give for `O=C(COC(=O)c1c(Cl)ccc(Cl)c1Cl)NCC1CCCO1` (configuration not stated) here?
A: Its Potency is inconclusive: 4.61 µM [inhibitor, partial curve, poor fit].

Q: For `COc1ccccc1NS(=O)(=O)c1cccc(C(=O)NNC(=O)C(C)NC(=O)c2ccco2)c1` (configuration not stated), which “activity change, negative = inhibition” value is on record?
A: The value was inactive: 8.33%.

Q: For `Cc1ccc(S(=O)(=O)N[C@H](C(=O)OCn2nnc3ccccc3c2=O)C(C)C)cc1`, which Potency is on record?
A: The Potency was active: 20.6 µM.

Q: For `O=c1c([N+](=O)[O-])c(NC2CCCCC2)c2ccccc2n1-c1ccccc1`, which “activity change, negative = inhibition” value is on record?
A: The value was inactive: -21.1%.

Q: For `CCOC(=O)c1cc(-c2ccccc2)sc1NC(=O)c1cc(OC)c(OC)c(OC)c1`, which Potency is on record?
A: Its Potency is inconclusive: 5.17 µM [inhibitor, partial curve, poor fit].

Q: Which Potency does the source give for `CCc1cc(-c2nc(N)ncc2-c2ccc(Br)cc2)c(O)cc1OC` here?
A: Its Potency is inconclusive: 18.3 µM [inhibitor, single point].

Q: For `CN1CCN(/C=N/c2c(C#N)cnn2Cc2ccccc2)CC1`, which “activity change, negative = inhibition” value is on record?
A: Its value is inactive: -14%.

Q: With `CCc1ccc(NC(=O)c2ccc(Cn3cc([N+](=O)[O-])cn3)cc2)cc1` as the compound, how does the Potency read?
A: Its Potency is inconclusive: 20.6 µM [activator, partial curve, poor fit].

Q: For `COc1nc(-c2cccc([N+](=O)[O-])c2)nc2ccccc12`, which “activity change, negative = inhibition” value is on record?
A: The value was inactive: -7.28%.

Q: Which Potency does the source give for `c1cc(Nc2ncnc3sccc23)cc(-c2nnc3n2CCCCC3)c1` here?
A: The Potency was active: 23.1 µM.

Q: Which “activity change, negative = inhibition” value does the source give for `CC(C)(C)C(=O)NCCCc1ccccc1` here?
A: Its value is inactive: 14.9%.

Q: With `Cc1ccc2c(NC(=O)c3ccc(Br)o3)cccc2n1` as the compound, how does the Potency read?
A: Its Potency is inconclusive: 20.6 µM [activator, single point].

Q: For `N#C/C(=C\c1ccc(-c2ccccc2[N+](=O)[O-])o1)C(=O)Nc1nc(-c2cccs2)cs1`, which Potency is on record?
A: Its Potency is active: 20.6 µM.

Q: With `Cc1ccc(-c2nc(-c3ccccn3)no2)cc1Cl` as the compound, how does the Potency read?
A: The Potency was inconclusive: 0.0731 µM [activator, full curve, poor fit].

Q: With `COc1ccccc1CNC(=O)COc1cc2c(c3oc(=O)cc(C)c13)CCC(C)(C)O2` as the compound, how does the Potency read?
A: The Potency was inconclusive: 0.206 µM [activator, single point].

Q: Which “activity change, negative = inhibition” value does the source give for `Cc1nnc(SCC(=O)Nc2ccccc2F)n1-c1ccc(F)cc1` here?
A: Its value is inactive: 8.02%.

Q: With `COC(=O)Cn1c(=NC(=O)c2cc(OC)c(OC)c(OC)c2)sc2cc(OC)ccc21` as the compound, how does the Potency read?
A: The Potency was inconclusive: 6.51 µM [inhibitor, partial curve, poor fit].

Q: With `O=C(/C=C/c1ccc([N+](=O)[O-])cc1)/C=C/c1ccco1` as the compound, how does the Potency read?
A: Its Potency is inconclusive: 16.4 µM [activator, single point].

Q: For `O=C(CN1CCCN(S(=O)(=O)c2ccc(F)cc2)CC1)Nc1ccccc1Br`, which Potency is on record?
A: Its Potency is inconclusive: 25.9 µM [inhibitor, partial curve, poor fit].

Q: Which “activity change, negative = inhibition” value does the source give for `CCOc1ccc(NS(=O)(=O)c2ccc(C(=O)NNC(=O)c3ccccc3O)cc2)cc1` here?
A: The value was inactive: -16.6%.

Q: For `CCc1nc(C)cn1S(=O)(=O)c1cc(Br)c(C)cc1OC`, which Potency is on record?
A: Its Potency is inconclusive: 1.16 µM [inhibitor, single point].

Q: For `CCCCSCc1nc2ccccn2c1Br`, which Potency is on record?
A: Its Potency is inconclusive: 16.4 µM [activator, single point].

Q: For `CC(=O)Nc1ccc(S(=O)(=O)N2CCN(c3cc(C)ccc3C)CC2)cc1`, which “activity change, negative = inhibition” value is on record?
A: Its value is inactive: 7.2%.

Q: With `N/C(=N\OC(=O)c1ccc2c(c1)OCO2)c1ccc([N+](=O)[O-])cc1` as the compound, how does the Potency read?
A: The Potency was inconclusive: 18.3 µM [activator, partial curve].

Q: For `COc1ccc(/C=N/NC(=O)c2ccncc2)cc1OC`, which “activity change, negative = inhibition” value is on record?
A: Its value is inactive: 5.74%.

Q: Which Potency does the source give for `COc1cc(C(=O)NCCOc2ccc(F)cc2)c(Br)c(OC)c1OC` here?
A: Its Potency is inconclusive: 16.4 µM [inhibitor, single point].

Q: Which Potency does the source give for `[O-][n+]1cccc2c(Br)cc(Br)c(O)c21` here?
A: Its Potency is inconclusive: 14.6 µM [inhibitor, partial curve].

Q: With `CCOC(=O)N1CCN(c2cc(C)c(C(C)=O)cc2F)CC1` as the compound, how does the “activity change, negative = inhibition” value read?
A: The value was inactive: -13.7%.

Q: For `CC1CCCN(S(=O)(=O)c2cccc(C(=O)NCc3ccco3)c2)C1` (configuration not stated), which “activity change, negative = inhibition” value is on record?
A: The value was inactive: 1.46%.

Q: For `CCOC(=O)c1sc2nccc(OC)c2c1N=CNOC`, which “activity change, negative = inhibition” value is on record?
A: The value was inactive: -5.23%.

Q: With `CCOC(=O)c1c(C)nc(C)c2c(=O)oc3ccccc3c12` as the compound, how does the Potency read?
A: Its Potency is inconclusive: 16.4 µM [activator, partial curve].

Q: Which Potency does the source give for `Cc1cccc(OCc2cc(-c3ccccc3)no2)c1C` here?
A: Its Potency is inconclusive: 23.1 µM [activator, single point].

Q: For `CCOC(=O)N1CCN(C(=O)c2noc3c2COc2ccccc2-3)CC1`, which Potency is on record?
A: The Potency was inconclusive: 14.6 µM [activator, partial curve].

Q: With `O=C(Nc1ccccc1)c1ccc(NCc2ccco2)c(S(=O)(=O)N2CCOCC2)c1` as the compound, how does the Potency read?
A: The Potency was inconclusive: 20.6 µM [inhibitor, single point].

Q: With `COc1cccc(CNC(=O)c2cccnc2Sc2ccc(C)cc2C)c1` as the compound, how does the Potency read?
A: Its Potency is inconclusive: 23.1 µM [inhibitor, single point].

Q: For `CCN(CC)CCNC(=O)C(=O)Nc1cc2c3c(c1)CCN3C(=O)CC2`, which Potency is on record?
A: The Potency was inconclusive: 23.1 µM [activator, partial curve].

Q: Which “activity change, negative = inhibition” value does the source give for `COc1ccccc1N=Nc1c(C)[nH]n(-c2ccccc2)c1=O` here?
A: Its value is inactive: 10.5%.

Q: With `Cc1ccc(NC(=O)c2nnn(CC(=O)Nc3ccccc3)c2N)cc1C` as the compound, how does the Potency read?
A: The Potency was inconclusive: 11.6 µM [activator, partial curve, poor fit].

Q: With `C/C(=N\NC(=O)c1ccc(NS(=O)(=O)c2cccs2)cc1)c1cccs1` as the compound, how does the “activity change, negative = inhibition” value read?
A: The value was inactive: -0.434%.

Q: With `COc1cccc(C2c3[nH]c4ccccc4c3CCN2Cc2cnn(C)c2)c1` (configuration not stated) as the compound, how does the Potency read?
A: The Potency was inconclusive: 18.3 µM [inhibitor, single point].

Q: Which “activity change, negative = inhibition” value does the source give for `C=CCO/N=C(/CCC)C1=C(N)CC(C)(C)CC1=O` here?
A: The value was inactive: -4.77%.

Q: Which Potency does the source give for `CCN1CCN(S(=O)(=O)c2ccc(Cl)c(C(=O)NCCc3ccccc3)c2)CC1` here?
A: Its Potency is inconclusive: 25.9 µM [activator, single point].

Q: Which Potency does the source give for `Cc1ccc(C(=O)NC(=S)Nc2ccc(-c3ccc(CO)o3)cc2)cc1` here?
A: Its Potency is inconclusive: 29.1 µM [inhibitor, partial curve, poor fit].

Q: With `CC1=[N+](C)c2c(ccc3cccnc23)C1(C)C` as the compound, how does the Potency read?
A: The Potency was inconclusive: 0.411 µM [inhibitor, full curve].

Q: Which “activity change, negative = inhibition” value does the source give for `O=C(Nc1ccccc1N1CCCCC1)c1cc(S(=O)(=O)N2CCOCC2)ccc1F` here?
A: Its value is inactive: -23.7%.

Q: For `CC(=O)N1c2ccc(S(=O)(=O)NCCC(=O)NCc3ccc(N(C)C)cc3)cc2CC1C` (configuration not stated), which Potency is on record?
A: Its Potency is active: 4.61 µM.

Q: For `Cc1cc(N/N=C/c2c[nH]c3ccccc23)c2ccccc2n1`, which “activity change, negative = inhibition” value is on record?
A: Its value is inactive: 17.3%.

Q: With `COc1ccc(C2=NOC(C(=O)NCc3cccs3)C2)cc1OC` (configuration not stated) as the compound, how does the Potency read?
A: Its Potency is inconclusive: 1.64 µM [inhibitor, partial curve, poor fit].

From PubChem BioAssay AID504467 (National Center for Advancing Translational Sciences (NCATS), 2011)
